The series can be described thus: general procedure: solution-phase peptide synthesis; HATU/DIEA; DEPC/DIEA.

Regarding “(2S,3S)—N-((3R,4S,5S)-1-((S)-2-((1R,2R)-3-(((S)-1-amino-1-oxo-3-phenylpropan-2-yl)amino)-1-methoxy-2-methyl-3-oxopropyl)pyrrolidin-1-yl)-3-methoxy-5-methyl-1-oxoheptan-4-yl)-3-azido-N-methyl-2-((S)-3-methyl-2-(methylamino)butanamido)butanamide”, the step yield (late stage modification step, TFA salt) was 79%. For the substance Fmoc-MeVal-Abu(3-N3)-Dil-Dap-Phe-NH2, the step yield (coupling step, formic acid salt) was 75%.

(Values after US9974865B2 (AGENSYS, INC., priority 2015, dated 2018).)
